According to PMC10989685:
Changes are numbered by the printed parent chain. These are yes or no findings as the source states them, for the method shown. Some results given as binding are weak or reduced against the parent protein; the word gives no strength. Tags and fused reporters may be left off the sequences shown.

Protein sequences, listed by entry. Tags and fused reporters are not part of them. Residues count along the entry.
UniProt E9Q7X7, residues 29-1634: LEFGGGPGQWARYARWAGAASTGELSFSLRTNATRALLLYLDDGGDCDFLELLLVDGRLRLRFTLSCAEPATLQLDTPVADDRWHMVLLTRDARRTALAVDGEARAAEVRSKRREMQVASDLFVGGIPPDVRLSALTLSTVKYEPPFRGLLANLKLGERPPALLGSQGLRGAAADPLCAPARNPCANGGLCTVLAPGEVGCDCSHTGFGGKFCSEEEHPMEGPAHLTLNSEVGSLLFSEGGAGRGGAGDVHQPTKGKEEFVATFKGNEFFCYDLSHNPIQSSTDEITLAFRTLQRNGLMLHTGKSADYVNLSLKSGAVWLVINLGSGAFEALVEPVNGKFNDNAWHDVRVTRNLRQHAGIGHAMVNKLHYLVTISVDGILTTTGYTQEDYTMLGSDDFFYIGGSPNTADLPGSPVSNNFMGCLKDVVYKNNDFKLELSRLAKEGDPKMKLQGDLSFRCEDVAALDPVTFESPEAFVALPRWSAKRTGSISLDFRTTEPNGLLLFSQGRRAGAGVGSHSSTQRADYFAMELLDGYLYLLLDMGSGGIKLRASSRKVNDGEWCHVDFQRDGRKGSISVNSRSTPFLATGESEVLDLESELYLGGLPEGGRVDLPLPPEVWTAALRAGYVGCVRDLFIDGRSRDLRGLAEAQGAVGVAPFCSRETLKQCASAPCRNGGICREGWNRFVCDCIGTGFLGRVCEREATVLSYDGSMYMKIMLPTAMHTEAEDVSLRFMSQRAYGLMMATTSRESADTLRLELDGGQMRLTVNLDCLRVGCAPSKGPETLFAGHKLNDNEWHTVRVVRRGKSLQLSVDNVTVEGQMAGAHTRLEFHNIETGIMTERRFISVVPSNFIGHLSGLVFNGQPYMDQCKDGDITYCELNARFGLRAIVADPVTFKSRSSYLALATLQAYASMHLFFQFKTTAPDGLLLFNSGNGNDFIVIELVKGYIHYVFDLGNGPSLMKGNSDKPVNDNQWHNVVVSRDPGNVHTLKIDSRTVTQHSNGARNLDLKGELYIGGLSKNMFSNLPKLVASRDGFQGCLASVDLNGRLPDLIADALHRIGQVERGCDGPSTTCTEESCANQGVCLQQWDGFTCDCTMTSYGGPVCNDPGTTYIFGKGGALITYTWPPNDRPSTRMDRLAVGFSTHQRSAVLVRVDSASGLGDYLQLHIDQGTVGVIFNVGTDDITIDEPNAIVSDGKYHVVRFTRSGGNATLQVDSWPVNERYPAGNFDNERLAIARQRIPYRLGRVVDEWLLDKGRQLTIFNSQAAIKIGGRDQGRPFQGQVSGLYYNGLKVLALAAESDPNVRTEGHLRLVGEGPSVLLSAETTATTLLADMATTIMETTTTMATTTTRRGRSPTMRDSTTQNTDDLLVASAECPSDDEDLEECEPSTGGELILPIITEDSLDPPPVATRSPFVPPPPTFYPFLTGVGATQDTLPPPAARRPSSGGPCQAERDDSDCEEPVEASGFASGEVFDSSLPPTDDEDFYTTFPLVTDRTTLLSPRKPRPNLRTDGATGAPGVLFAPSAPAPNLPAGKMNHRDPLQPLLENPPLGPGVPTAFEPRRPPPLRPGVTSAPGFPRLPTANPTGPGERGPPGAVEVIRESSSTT

Key:
Assay in all cases: in situ cell surface binding assay (fluorescence microscopy); HEK293T conditioned medium with Nrxn2α-Fc applied for 1 h at 4°C to COS7 cells expressing HA-tagged IgSF21 forms, in extracellular solution with 2 mM CaCl2, 1.3 mM MgCl2; bound Fc signal divided by surface HA signal and normalised to IgSF21 WT
IgSF21-HA E56R (mouse) = target: T1, IgSF21-HA E56R (mouse) (UniProt Q7TNR6)
T1 sequence: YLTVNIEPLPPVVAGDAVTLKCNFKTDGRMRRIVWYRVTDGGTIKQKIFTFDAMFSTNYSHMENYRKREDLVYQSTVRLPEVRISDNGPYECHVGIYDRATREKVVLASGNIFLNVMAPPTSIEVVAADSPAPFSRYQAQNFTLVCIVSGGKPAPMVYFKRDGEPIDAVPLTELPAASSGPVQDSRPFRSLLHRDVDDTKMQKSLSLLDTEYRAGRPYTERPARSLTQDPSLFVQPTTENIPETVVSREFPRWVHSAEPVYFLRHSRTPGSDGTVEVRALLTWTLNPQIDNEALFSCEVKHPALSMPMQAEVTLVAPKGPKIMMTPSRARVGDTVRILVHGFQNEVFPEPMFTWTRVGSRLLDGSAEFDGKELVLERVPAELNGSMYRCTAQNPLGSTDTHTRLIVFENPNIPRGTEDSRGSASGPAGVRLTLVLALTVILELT

IgSF21-HA K45R (mouse) = target: T2, IgSF21-HA K45R (mouse) (UniProt Q7TNR6)
T2 sequence: T1 sequence with K21R, R32E

IgSF21-HA R102D (mouse) = target: T3, IgSF21-HA R102D (mouse) (UniProt Q7TNR6)
T3 sequence: T1 sequence with R32E, R78D

IgSF21-HA R102K (mouse) = target: T4, IgSF21-HA R102K (mouse) (UniProt Q7TNR6)
T4 sequence: T1 sequence with R32E, R78K

IgSF21-HA R55D (mouse) = target: T5, IgSF21-HA R55D (mouse) (UniProt Q7TNR6)
T5 sequence: T1 sequence with R31D, R32E

“soluble Fc-tagged mouse Nrxn2α ectodomain (Nrxn2α-Fc) (from UniProt E9Q7X7 29-1634) (Fc fusion)” was tested, and the binding (IgSF21-HA E56R (mouse)) was “no binding”, the binding (IgSF21-HA K45R (mouse)) was “binds” and the binding (IgSF21-HA R102D (mouse)) was “binds”. For the same substance, the binding (IgSF21-HA R102K (mouse)) was “binds” and the binding (IgSF21-HA R55D (mouse)) was “no binding”.
